The record followed here is PubChem BioAssay AID330 (DTP/NCI, 2004).

In this assay the test system is P388 leukemia ip, CD2F1 mice, survival T/C. In words: NCI In Vivo Anticancer Drug Screen. Data for tumor model P388 Leukemia (intraperitoneal) in CD2F1 (CDF1) mice. Conditions: T/C endpoint: median survival time, higher T/C = longer survival.
The mark [1] stands for this setting: dose: 400.0 mg/kg/injection, schedule: Q01DX009 (ip), vehicle: water.
Setting [2] is: dose: 25.0 mg/kg/injection, schedule: Q01DX009 (ip), vehicle: saline.
Where [3] appears, read: dose: 50.0 mg/kg/injection, schedule: Q01DX009 (ip), vehicle: saline.
Where [4] appears, read: dose: 100.0 mg/kg/injection, schedule: Q01DX009 (ip), vehicle: saline.
Setting [5] is: dose: 200.0 mg/kg/injection, schedule: Q01DX009 (ip), vehicle: saline.
The mark [6] stands for this setting: dose: 200.0 mg/kg/injection, schedule: Q01DX009 (ip), vehicle: saline with Tween-80.
[7] abbreviates: dose: 200.0 mg/kg/injection, schedule: Q01DX009 (ip), vehicle: Klucel (hydroxypropylcellulose) (HPC).

The list shows only some results of the screen, not a fair sample: it is rich in T/C values a quarter to a half above the control, in often repeated tests (any T/C) and in doses without a T/C. Other doses and runs of a compound stand elsewhere. T/C is the treated group as % of the vehicle group. Some doses have a count of surviving animals in place of a T/C: the source files T/C as zero there, which appears to mark a toxic dose or a test without result, not a measured value. Some doses without a T/C left all or most animals alive at the check, yet need not have been tolerated: the source hardly ever lists a survival T/C far under the control, and the zero likely stands for such cases as well. Survivors were counted at the toxicity check, usually on the fifth day, unless a day is given; later deaths do not show. Schedules are NCI's codes, taken here to give the interval after Q, in days (D) or hours (H), and the number of doses after X. Some entries hold several experiments; their values stand side by side, smallest first. Where survival is the endpoint, the PubChem record calls one and a half times the control and up active, and a quarter to a half above the control has no call in these data; cut-offs in other NCI protocols can differ. Some T/C values are followed by the survivors on the day toxicity was checked, most often the fifth; where none is given, no animal had died by that day.

On to `C/C=C1\C[C@@H]2C(OC)Nc3cc(O)c(OC)cc3C(=O)N2C1` (some centres undefined), for which the T/C runs as follows: (dose: 0.04 mg/kg/injection, schedule: Q04DX003 (ip), vehicle: other) 133 % of control; (dose: 0.07 mg/kg/injection, schedule: Q04DX003 (ip), vehicle: other) 148 % of control; (dose: 30.0 micrograms/kg/injection, schedule: Q01DX009 (ip), vehicle: other) 138 % of control. In addition, the survivor count (dose: 1.0 mg/kg/injection, schedule: Q04DX003 (ip), vehicle: other) is listed as 1 of 6; the survivor count (dose: 2.0 mg/kg/injection, schedule: Q04DX003 (ip), vehicle: other) is given as 1 of 6; the survivor count (dose: 3.0 mg/kg/injection, schedule: Q04DX003 (ip), vehicle: other) is given as 0 of 6; the survivor count (dose: 4.0 mg/kg/injection, schedule: Q04DX003 (ip), vehicle: other) is given as 0 of 6; the survivor count (dose: 10.0 mg/kg/injection, schedule: Q04DX003 (ip), vehicle: other) was 0 of 6; the survivor count (dose: 1000.0 micrograms/kg/injection, schedule: Q01DX009 (ip), vehicle: other) is 1 of 6.

With `COc1ccc2c(c1)C(CCN(C)C)(CCN(C)C)C(=O)CC2`, the survivor count is, setting by setting: (dose: 100.0 mg/kg/injection, schedule: Q01DX005 (ip), vehicle: saline) 2 of 6; (dose: 200.0 mg/kg/injection, schedule: Q01DX005 (ip), vehicle: saline) 0 of 6.

With `COc1cc(C=Nc2cc(Br)cc(Br)c2)ccc1N(CCCl)CCCl`, the T/C is, setting by setting: (dose: 1.0 mg/kg/injection, schedule: Q01DX009 (ip), vehicle: saline with Tween-80) 130 % of control; (dose: 1.25 mg/kg/injection, schedule: Q01DX009 (ip), vehicle: saline with Tween-80) 145 % of control; (dose: 4.5 mg/kg/injection, schedule: Q04DX003 (ip), vehicle: other) 134 % of control.

As to `C[n+]1c2ccccc2cc2[nH]c3ccccc3c21`, the survivor count was 6 of 6 (dose: 12.5 mg/kg/injection, schedule: Q01DX005 (ip), vehicle: Klucel + Tween-80); 2 of 6 (dose: 25.0 mg/kg/injection, schedule: Q01DX005 (ip), vehicle: Klucel + Tween-80); 0 of 6 (dose: 50.0 mg/kg/injection, schedule: Q01DX005 (ip), vehicle: Klucel + Tween-80); 0 of 6 (dose: 100.0 mg/kg/injection, schedule: Q01DX005 (ip), vehicle: Klucel + Tween-80); 0 of 6 (dose: 200.0 mg/kg/injection, schedule: Q01DX005 (ip), vehicle: Klucel + Tween-80).

Turning to `Nc1nc(-c2cccc3ccccc23)cc2ccccc12`, the T/C by setting is: (dose: 25.0 mg/kg/injection, schedule: Q01DX009 (ip), vehicle: water) 130 % of control; (dose: 50.0 mg/kg/injection, schedule: Q01DX009 (ip), vehicle: water) 127 % of control. Under setting [1], the survivor count is listed as 5 of 6.

As to `C[C@H](CCC(=O)O)[C@H]1CC[C@H]2[C@@H]3[C@H](O)C[C@@H]4C[C@H](O)CC[C@]4(C)[C@H]3C[C@H](O)[C@]12C` (tested in a mixture with another compound), the T/C (dose: 150.0 mg/kg/injection, schedule: Q01DX009 (ip), vehicle: saline sonified) is 131 % of control.

Regarding `NCC(O)c1cccc(O)c1` (centres undefined), the survivor count is, setting by setting: under setting [2], 3 of 6; under setting [3], 2 of 6, 3 of 6, 5 of 6; under setting [4], 3 of 6 and 5 of 6; under setting [5], 1 of 6 and 5 of 6; (dose: 400.0 mg/kg/injection, schedule: Q01DX009 (ip), vehicle: saline) 3 of 6 and 4 of 6; (dose: 600.0 mg/kg/injection, schedule: Q01DX009 (ip), vehicle: saline) 0 of 6. Besides, the T/C under setting [3] was 94 % of control [4 of 6 alive].

For the compound `Cn1cc(C2=C(Cl)C(=O)N(c3cc(Cl)cc(Cl)c3)C2=O)c(=O)n(C)c1=O`, the survivor count is listed as 2 of 6 (dose: 60.0 mg/kg/injection, schedule: Q01DX005 (ip), vehicle: Klucel (hydroxypropylcellulose) (HPC)); 3 of 6 (dose: 120.0 mg/kg/injection, schedule: Q01DX005 (ip), vehicle: Klucel (hydroxypropylcellulose) (HPC)); 4 of 6 (dose: 240.0 mg/kg/injection, schedule: Q01DX005 (ip), vehicle: Klucel (hydroxypropylcellulose) (HPC)).

Regarding `CC(C)(C)SC(=O)c1ccco1`, the survivor count under setting [6] is 4 of 6.

For the compound `CC1=CC(C)=NC(N)=NN1`, the survivor count under setting [1] is recorded as 3 of 6.

For `C=CCn1c(NC2=C(Cl)C(=O)c3ccccc3C2=O)cc(=O)[nH]c1=O`, the survivor count is, setting by setting: (dose: 100.0 mg/kg/injection, schedule: Q01DX009 (ip), vehicle: Klucel (hydroxypropylcellulose) (HPC)) 4 of 6; under setting [7], 6 of 6.

Consider `CN(C)CC[CH2][Sn]([CH3])([c]1ccccc1)[c]1ccccc1`, for which the survivor count runs as follows: under setting [3], 6 of 6; under setting [4], 6 of 6; under setting [5], 1 of 6.

For `CCOC(=O)c1cc(-c2ccccn2)c(=O)n2ccccc12`, the survivor count was 6 of 6 (dose: 100.0 mg/kg/injection, schedule: Q01DX009 (ip), vehicle: saline with Tween-80) and 6 of 6 under setting [6].

Regarding `CC(O)C(O)C(O)C(O)C=O` (centres undefined), the T/C (dose: 120.0 mg/kg/injection, schedule: Q01DX005 (ip), vehicle: saline) was 126 % of control.

For `CC(C)CCCCCCCCCCCCC(=O)NCCC(=O)NC1C(CO)OC(Nc2ncnc3nc[nH]c23)C(O)C1O` (centres undefined), the T/C was 131 % of control (dose: 3.12 mg/kg/injection, schedule: Q01DX009 (ip), vehicle: other) and 127 % of control (dose: 3.13 mg/kg/injection, schedule: Q01DX009 (ip), vehicle: other). Besides, the survivor count is on record as 6 of 6 (dose: 12.5 mg/kg/injection, schedule: Q01DX009 (ip), vehicle: other); 6 of 6 (dose: 25.0 mg/kg/injection, schedule: Q01DX009 (ip), vehicle: other); 5 of 6 (dose: 50.0 mg/kg/injection, schedule: Q01DX009 (ip), vehicle: other).

`CC(=O)[O][Sn]([CH3])([CH3])[c]1ccccc1`: the survivor count by setting is: (dose: 12.5 mg/kg/injection, schedule: Q01DX009 (ip), vehicle: saline) 2 of 6; under setting [2], 0 of 6; under setting [3], 0 of 6; under setting [4], 0 of 6; under setting [5], 0 of 6.

As for `Cc1cc(C)c(CSc2cc(N)nc(N)c2N)c(C)c1`, the survivor count runs as follows: under setting [7], 0 of 6; (dose: 400.0 mg/kg/injection, schedule: Q01DX009 (ip), vehicle: Klucel (hydroxypropylcellulose) (HPC)) 0 of 6.

With `CN(C)CCNC(=O)c1ccc(C(=O)NCCN(C)C)c2c(C(=O)NCCN(C)C)ccc(C(=O)NCCN(C)C)c12`, the survivor count reads like this: (dose: 25.0 mg/kg/injection, schedule: Q01DX005 (ip), vehicle: saline with Tween-80) 3 of 6; (dose: 50.0 mg/kg/injection, schedule: Q01DX005 (ip), vehicle: saline with Tween-80) 0 of 6; (dose: 100.0 mg/kg/injection, schedule: Q01DX005 (ip), vehicle: saline with Tween-80) 0 of 6; (dose: 200.0 mg/kg/injection, schedule: Q01DX005 (ip), vehicle: saline with Tween-80) 0 of 6.

`Cn1c(Cl)c(C=O)c(=O)n(C)c1=O`: the survivor count (dose: 400.0 mg/kg/injection, schedule: Q04DX003 (ip), vehicle: saline with Tween-80) is on record as 0 of 6.

For `COCC[P+](c1ccccc1)(c1ccccc1)c1ccccc1`, for the setting “dose: 0.78 mg/kg/injection, schedule: Q01DX009 (ip), vehicle: water”, the survivor count is 6 of 6. Where the note is “dose: 12.5 mg/kg/injection, schedule: Q01DX009 (ip), vehicle: water”, the T/C was 131 % of control.

For `CC(C)CC(CO)Cc1nc2ccccc2[nH]1` (centres undefined), the survivor count (dose: 240.0 mg/kg/injection, schedule: Q01DX005 (ip), vehicle: saline with Tween-80) was 1 of 6.

For the compound `Nc1cc(Cl)c2[nH]c(-c3ccccc3)nc2n1`, the survivor count (dose: 200.0 mg/kg/injection, schedule: Q01DX001 (ip), vehicle: saline with Tween-80) is listed as 6 of 6.
